Data: PMC10954715
These are yes or no findings as the source states them, for the method shown. In cells and extracts the contact can be indirect. Some entries that bind do so weakly or less than the wild type.

Protein sequences, listed by entry. Tags and fused reporters are not part of them. Lines headed by an entry give the natural chain unless they say otherwise; changes in a name come on top. Residues count along the entry.
UniProt Q96LA8: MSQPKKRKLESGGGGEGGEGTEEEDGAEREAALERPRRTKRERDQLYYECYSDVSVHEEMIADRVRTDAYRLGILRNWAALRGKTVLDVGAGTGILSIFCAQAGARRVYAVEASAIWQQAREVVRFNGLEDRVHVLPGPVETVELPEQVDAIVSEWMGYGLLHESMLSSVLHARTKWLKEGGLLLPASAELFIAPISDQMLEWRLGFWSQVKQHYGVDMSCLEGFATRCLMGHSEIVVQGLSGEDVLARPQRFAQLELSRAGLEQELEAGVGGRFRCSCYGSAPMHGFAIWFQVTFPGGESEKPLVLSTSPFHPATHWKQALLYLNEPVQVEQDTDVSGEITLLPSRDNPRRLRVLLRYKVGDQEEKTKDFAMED
PPARγ1 (P37231, residues 29-505): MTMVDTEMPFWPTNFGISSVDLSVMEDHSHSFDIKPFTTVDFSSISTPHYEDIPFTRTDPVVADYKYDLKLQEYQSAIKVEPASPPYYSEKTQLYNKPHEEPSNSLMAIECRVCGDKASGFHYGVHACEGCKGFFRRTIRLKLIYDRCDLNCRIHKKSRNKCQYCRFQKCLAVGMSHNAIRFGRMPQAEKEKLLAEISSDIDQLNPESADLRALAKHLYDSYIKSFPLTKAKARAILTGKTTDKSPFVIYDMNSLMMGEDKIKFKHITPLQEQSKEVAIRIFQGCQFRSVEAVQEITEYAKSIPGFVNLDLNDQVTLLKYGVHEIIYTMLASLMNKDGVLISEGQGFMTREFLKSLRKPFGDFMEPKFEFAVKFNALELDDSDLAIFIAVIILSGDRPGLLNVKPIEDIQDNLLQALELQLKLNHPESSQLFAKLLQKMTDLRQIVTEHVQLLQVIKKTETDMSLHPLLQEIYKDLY

Legend:
Flag-PRMT6 = Flag-PRMT6 (UniProt Q96LA8); experiment: co-IP; HEK293T cells transfected with Flag-PRMT6 and PPARγ1 or PPARγ2; 600 µg whole cell lysate (50 mM Tris-HCl pH 7.5, 150 mM NaCl, 1% IGEPAL, 1 mM EDTA; Benzonase treated) with anti-DYKDDDDK magnetic agarose beads, 2 h, 4 °C; blot with anti-PPARγ antibody
GST-PRMT6 = GST-PRMT6 (UniProt Q96LA8); experiment: pull-down; GST-PRMT6 on beads incubated with 10 µl in vitro translated 35S-labelled PPARγ2, 3 h, 4 °C; SDS-PAGE and phosphorimaging; only the target purified

Row | Substance | binding (Flag-PRMT6) | binding (GST-PRMT6)
1 | PPARγ1 (from UniProt P37231-2 1-477) | binds | 
2 | PPARγ2 (from UniProt P37231-1 1-505) | binds | 
3 | in vitro translated 35S-labelled PPARγ2 (from UniProt P37231-1 1-505) |  | binds
